Experimental data: PubChem BioAssay AID504793 (Drosophila RNAi Screening Center, 2011)

Test: 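Knock-downs allowing continued mitosis even though DNA is damaged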 (primary screen)
Cells: Drosophila S2R+ cells
Reagent: long dsRNA against Drosophila genes, about 0.25 µg dsRNA per well
Timing: 4 days of dsRNA, then 4 hours of drug before read-out
Challenge: doxorubicin 0.5 µM for 4 hours to cause double-strand breaks, in cells also given a low, harmless dose of dsRNA against nbs to sensitise the assay
Measurement: 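Mitotic index as the number of phospho-histone H3-positive cells in each well following doxorubicin, given as raw counts without normalisation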
Reading the numbers: mitotic cells: higher = more cells in mitosis, weaker G2 arrest
Active means: 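a call needs confirmation in secondary tests, with other dsRNAs and a check of mitotic timing without damage, not just a high primary count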
Meaning of the calls: active = confirmed in follow-up tests; inactive = not confirmed
The screen tested about 23,000 reagents; below is a random part of those that have a named target and a result. In the full data, 62 (0.27%) were called active. 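Calls come from follow-up tests whose scores are not deposited, so confirmed genes may have low counts here; counts are not normalised per plate.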 The raw values are shown without normalisation. Unmarked entries are inactive. Reagents against one gene are numbered here. Names joined by + are all predicted targets of the reagent.

gene	dsRNA no.	mitotic cells, replicate 1	mitotic cells, replicate 2
Act57B	1	2	
Rpt3R	1	7	
Rpt3R	2	11	
rb	1	4	
rb	2	10	
CG17195	1	13	
CG17195	2	11	
CG33299	1	3	
bou	1	12	
Ufl1	1	6	
Elovl7	1	4	
Elovl7	2	14	
Elovl7	3	4	
Lsp1gamma	1	3	
Lsp1gamma	2	3	
CG31647 (retired record)	1	7	
CG31647 (retired record)	2	11	
Orc1	1	12	
Ing3	1	5	19
Ing3	2	5	
GNBP3	1	3	
CG32198	1	9	
CG32198	2	3	
Csl4	1	5	
Csl4	2	10	
yellow-g2	1	6	
Peritrophin-A	1	4	
dany	1	5	
CG11317	1	5	
eIF3f1	1	6	
eIF3f1	2	3	
ND-ASHI	1	5	
ND-ASHI	2	4	
CG6696	1	5	
CG6696	2	4	
Atg13	1	8	
MBD-R2	1	56 (active)	
CG5500	1	5	
CG5500	2	9	
CG34433	1	12	
CG11779 + CG5835	1	15	
CG11779 + CG5835	2	4	
CG12099	1	3	
Prim2	1	5	
Tektin-C	1	4	
Tektin-C	2	6	
ewg	1	17	
ewg	2	10	
Pss	1	4	
Rdh	1	4	
mag	1	5	
mag	2	6	
CG12945	1	4	
bbx + waw	1	6	
bbx + waw	2	4	
SPR	1	7	
SPR	2	16	
SPR	3	7	
Srx	1	6	
NELF-B	1	12	
NELF-B	2	9	
CG8298	1	3	
twf	1	11	
Phae2	1	2	
CG13337	1	3	
CG13337	2	4	
fzr2	1	5	
CG7179	1	7	
Fer1HCH	1	12	
Fer1HCH	2	9	
CG14736	1	5	
CG14736	2	6	
CG7120	1	10	
CG31019	1	4	
CG31019	2	5	
mRpL17	1	11	
grsm	1	4	
grsm	2	6	
azot	1	1	
azot	2	5	
CG15841 (retired record) + Acp33A	1	4	
CG9826	1	3	
cato	1	8	
Rbcn-3A	1	18	
Rbcn-3A	2	11	
CG33255 (retired record) + hpRNA:CR32205 + hpRNA:CR32207	1	22	
CG11560	1	10	
CG11560	2	3	
Nipsnap	1	3	
l(2)37Bb	1	4	9
Gr59b	1	3	
CG3630	1	6	
CG3630	2	3	
CG31862	1	11	
DCP2	1	4	
HDAC11	1	13	
HDAC11	2	6	
CG8245	1	15	
HPS1	1	2	
CG11458	1	11	
CG3702	1	4	
Madm	1	7	
Madm	2	2	
Rad17	1	5	
tut	1	8	
CG4020	1	13	
RpL35	1	11	
CG8563	1	4	
CG9162 (retired record)	1	8	
CG14135	1	4	
